# Experimental data: PubChem BioAssay AID445 (National Center for Advancing Translational Sciences (NCATS), 2006)
# This is one part of the list. The main result of the screen is listed elsewhere. These columns were measured beside it and carry no call. Compounds called inactive in the main read-out are mostly missing here. Potencies come from curve fits of mixed quality, noted in brackets.
# Test: IkB Signaling
# Details: ABC-DLBCL IkBa-CBG/CBR dual luciferase ratio (green luciferase fused to IkBa over red control in OCI-Ly3 lymphoma cells), 4 h
# Summary of the method: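 Curves were fitted separately to fusion (green), unfused (red) and ratio luminescence, then classed by r2, magnitude and activity. Cells: OCI-Ly3, 4 h compound plus doxycycline at 37C; 10 uM MG-132 defined full response.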
# [1] = measured here: control luc red channel unless noted
structure (smiles),measurement,setting,value
CSc1ncc2c(n1)-c1ccccc1N(Cc1ccccc1)S2(=O)=O,AC50,[1],"25.1 µM [falling, partial curve]"
O=C1c2[nH]nc(-c3ccc(F)cc3)c2C(c2ccccc2F)N1c1ccccc1 (stereo not given),AC50,[1],"15.8 µM [falling, partial curve]"
O=C(NCc1ccc(F)cc1)C(=O)NCC(c1ccc2c(c1)OCO2)N1CCOCC1 (stereo not given),AC50,[1],"0.2 µM [falling, single point]"
Cc1cccc(-c2nc3nc(C)cc(NC(C)c4ccccc4)n3n2)c1 (stereo not given),AC50,[1],"12.6 µM [falling, partial curve]"
COc1ccc(C(=O)N(Cc2ccco2)Cc2ccc(C)o2)cc1,AC50,[1],"25.1 µM [falling, single point]"
CNC(=O)c1c(NC(=O)/C=C/c2ccccc2)sc2c1CCC2,AC50,[1],"0.0398 µM [falling, full curve]"
Cc1ccc2nc(-c3ccc(NC(=O)COc4ccc(Br)cc4Br)cc3)sc2c1,AC50,[1],"0.631 µM [rising, full curve]"
CCOc1ccc(NC(=O)Cn2nnc(-c3nc(-c4ccncc4)no3)c2N)cc1,AC50,[1],"6.31 µM [rising, full curve]"
Cc1ccccc1NC(=O)/C(C#N)=C/c1ccc(Cl)cc1Cl,AC50,measured here: IkB-luc green channel,"10 µM [rising, partial curve]"
same,AC50,measured here: control luc red channel,"15.8 µM [rising, partial curve]"
CCc1ccc(NCc2cc3cc4c(cc3n(CC(=O)Nc3ccccc3C)c2=O)OCCO4)cc1,AC50,[1],"1.58 µM [falling, partial curve]"
Cc1ccc2oc(-c3ccc(Cl)c(NC(=O)c4cc5ccccc5o4)c3)nc2c1,AC50,[1],"2 µM [falling, full curve]"
COc1ccc(Cl)cc1NC(=O)c1cnc2sc(N3CCOCC3)nn2c1=O,AC50,[1],"1.58 µM [falling, full curve]"
COc1cc(C(=O)OCC(=O)Nc2ccc3c(c2)OC(F)(F)O3)ccc1OCc1c(C)noc1C,AC50,[1],"25.1 µM [falling, partial curve]"
CN1CCN(CCNC(=O)c2cnn(-c3ccc(Cl)cc3)c2C2CCN(C(=O)OC(C)(C)C)CC2)CC1,AC50,[1],"25.1 µM [falling, single point]"
COc1ccc(CCNC(=O)C(C)n2nc(C)c3sc4ccccc4c3c2=O)c(OC)c1 (stereo not given),AC50,[1],"1.58 µM [falling, full curve]"
Cc1ccc(S(=O)(=O)Nc2ccc3nc(-c4cccc(Cl)c4)oc3c2)cc1,AC50,[1],"20 µM [falling, partial curve]"
Fc1ccc(Nc2nc3ccccc3n3cnnc23)c(F)c1,AC50,[1],"2.51 µM [rising, partial curve]"
COc1ccc(NC(=O)c2nc(-c3ccc(C)cc3)n3c2CCCCC3)cc1,AC50,[1],"20 µM [falling, partial curve]"
O=C(c1ccc(F)cc1)n1nc(-c2cccnc2)nc1NCc1ccccc1,AC50,[1],"15.8 µM [falling, partial curve]"
COc1ccc(-c2nc(NC(=O)c3cc(C(C)(C)C)nn3C)sc2C)cc1,AC50,[1],"10 µM [falling, partial curve]"
Cc1nc2nc(CNC(=O)c3cccc(F)c3)nn2c(C)c1CCC(=O)Nc1cccc(Cl)c1,AC50,[1],"20 µM [falling, single point]"
Cc1nn(C(C)C(=O)Nc2ccccc2C(F)(F)F)c(=O)c2c1sc1ccccc12 (stereo not given),AC50,[1],"7.94 µM [falling, partial curve]"
Cc1ccc(Nc2nc3nonc3[nH]c2=O)cc1,AC50,[1],"15.8 µM [falling, single point]"
CCc1cc(/C(Cc2ccc3ccccc3n2)=N\O)c(O)cc1O,AC50,[1],"0.158 µM [falling, full curve]"
Cc1ccc(NC(=O)c2oc3ccc(S(=O)(=O)N4CCC5(CC4)OCCO5)cc3c2C)cc1Cl,AC50,[1],"15.8 µM [falling, partial curve]"
COc1ccc(-c2nc3cc(NC(=O)COc4ccccc4C)ccc3o2)cc1,AC50,[1],"0.398 µM [rising, full curve]"
Cc1ccc(-c2cc(-c3ccccc3Cl)c(C#N)c(N)n2)o1,AC50,[1],"12.6 µM [falling, partial curve]"
COc1ccc(-c2nnc(SC(C)C(=O)Nc3ccc4c(c3)OCCO4)o2)cc1 (stereo not given),AC50,[1],"25.1 µM [rising, partial curve]"
CCCCC(=O)Nc1ccc(Br)cc1C(=O)O,AC50,[1],"1.58 µM [falling, full curve]"
O=C1CC(Sc2ncccn2)C(=O)N1c1ccccc1C(F)(F)F (stereo not given),AC50,[1],"15.8 µM [falling, partial curve]"
CCOC(=O)C(C)NC(=O)c1c2c(nc3ccccc13)C(=O)N(C1CCCCC1)C2 (stereo not given),AC50,[1],"7.94 µM [falling, full curve]"
COc1cc(C(c2c(C)[nH][nH]c2=O)c2c(C)[nH][nH]c2=O)ccc1OC(=O)c1ccccc1OC,AC50,[1],"39.8 µM [falling, single point]"
Oc1ccccc1-c1cc(-c2ccccc2Cl)[nH]n1,AC50,[1],"39.8 µM [falling, single point]"
Nc1nsc2ccccc12,AC50,[1],"15.8 µM [falling, partial curve]"
COc1ccccc1CNC(=O)Cn1cc2c(n1)-c1c(oc(C(=O)N3CCOCC3)c1C)CC2,AC50,[1],"15.8 µM [falling, partial curve]"
COC(=O)c1sccc1S(=O)(=O)N(CC(=O)Nc1cccc(C)c1C)c1ccc(C)c(C)c1,AC50,[1],"25.1 µM [falling, single point]"
COC(=O)C1=C(CSCc2ccco2)NC(=O)NC1c1cc(C)ccc1C (stereo not given),AC50,[1],"25.1 µM [falling, partial curve]"
COc1ccc(Cl)cc1N1CCN(CCNC(=O)Nc2ccccc2C)CC1,AC50,[1],"15.8 µM [falling, partial curve]"
CCc1ccccc1NC(=O)c1ccc2c(c1)CCCN2S(C)(=O)=O,AC50,[1],"1 µM [rising, partial curve]"
COc1ccc(Cn2c(CO)cnc2SCc2ccc(C)cc2)cc1,AC50,[1],"0.316 µM [falling, full curve, poor fit]"
CC(C)(C)OC(=O)N1CCC(c2c(C(=O)N3CCN(Cc4ccccc4)CC3)cnn2-c2cccc(Cl)c2)CC1,AC50,[1],"25.1 µM [falling, single point]"
CC(C)CCNC(=O)C1CCN(C(=O)c2cc3sccc3n2Cc2ccc(Cl)cc2)CC1,AC50,[1],"12.6 µM [falling, partial curve]"
COc1ccc(-c2nc(CS(=O)CC(=O)NCCc3ccc(Cl)cc3)c(C)o2)cc1OC (stereo not given),AC50,[1],"1.26 µM [rising, partial curve]"
CCc1ccc(-n2nc(CO)c(C(=O)NC)n2)cc1,AC50,[1],"1.58 µM [rising, partial curve]"
COc1ccc(N(C)C(=O)CCC(=O)Nc2ccc3nc(N4CCOCC4)cc(C)c3c2)c(OC)c1,AC50,[1],"10 µM [falling, partial curve]"
Cc1ccc2c(CC(=O)Nc3ccc(S(=O)(=O)N4CCCCC4)cc3)coc2c1C,AC50,[1],"6.31 µM [falling, partial curve]"
Oc1c(C(c2ccc(F)cc2)N2CCN(Cc3ccccc3)CC2)sc2nc(-c3ccco3)nn12 (stereo not given),AC50,[1],"39.8 µM [falling, single point]"
c1ccc(-c2ccccc2-c2nc(-c3cccnc3)no2)cc1,AC50,[1],"39.8 µM [falling, single point]"
CCN(CC)S(=O)(=O)c1ccc2[nH]cc(C(=O)NCCC3=CCCCC3)c(=O)c2c1,AC50,[1],"10 µM [falling, partial curve]"
CN1C(=O)C2(c3ccccc31)N(c1cccc(C(F)(F)F)c1)C(=O)CS2(=O)=O (stereo not given),AC50,[1],"20 µM [falling, single point]"
COc1ccc(Nc2nn3c(=O)c4cc5c(cc4nc3s2)OCO5)c(OC)c1,AC50,[1],"1.58 µM [falling, full curve, poor fit]"
Cc1cccc(N(C)S(=O)(=O)c2cc(-c3cnc(C4CC4)o3)ccc2C)c1,AC50,[1],"31.6 µM [falling, single point]"
CCOc1ccc(/C=C/C(=O)Nc2ccc3nc(N(CC)CC)cc(C)c3c2)cc1OC,AC50,[1],"25.1 µM [falling, partial curve]"
CC(C)Cn1c(-c2ccc(Cl)cc2)cnc1SCC(=O)N1CCOCC1,AC50,[1],"15.8 µM [falling, partial curve]"
CCc1ccc(C2c3c(-c4ccccc4O)n[nH]c3C(=O)N2Cc2cccnc2)cc1 (stereo not given),AC50,[1],"25.1 µM [falling, partial curve]"
CCOc1ccc(NC(=O)Cn2nc3c(cc2=O)CC(C)CC3)cc1 (stereo not given),AC50,[1],"0.0158 µM [falling, full curve, poor fit]"
O=C1Nc2ccccc2C(O)(C(=O)NCc2ccco2)N1c1ccc(Cl)cc1 (stereo not given),AC50,[1],"0.158 µM [rising, full curve]"
O=C(CCSCCc1ccccn1)Nc1ccc(Cl)cc1,AC50,[1],"15.8 µM [falling, partial curve]"
Cc1ccc2c(C)c(C(=O)N(Cc3ccc(N(C)C)cc3)Cc3ccco3)oc2c1C,AC50,[1],"20 µM [falling, partial curve]"
Cc1ccc(C)c(N2CCN(C(=O)c3ccc(Cn4c(=O)[nH]c5ccccc5c4=O)cc3)CC2)c1,AC50,[1],"10 µM [falling, partial curve]"
CCCCCC(=O)Nc1cc(N(C)C)nc2ccccc12,AC50,[1],"31.6 µM [falling, partial curve]"
COc1ccc2c(c1)c(N1CCCC1=O)c(C(=O)Nc1cc(C)c(Cl)cc1OC)n2C,AC50,[1],"10 µM [falling, partial curve]"
Cc1ccc2c(c1)cc1c(=O)n(Cc3ccccc3Cl)nc(C)n12,AC50,[1],"12.6 µM [falling, partial curve]"
C=CCn1c(SCC(=O)Nc2nc3ccccc3s2)nnc1-c1ccccc1O,AC50,[1],"7.94 µM [falling, partial curve]"

# Part of the list above, with tabs:
structure (smiles)	measurement	setting	value
COc1ccc(N(C)C(=O)CCC(=O)Nc2ccc3nc(N4CCOCC4)cc(C)c3c2)c(OC)c1	AC50	[1]	10 µM [falling, partial curve]
Cc1ccc2c(CC(=O)Nc3ccc(S(=O)(=O)N4CCCCC4)cc3)coc2c1C	AC50	[1]	6.31 µM [falling, partial curve]
Oc1c(C(c2ccc(F)cc2)N2CCN(Cc3ccccc3)CC2)sc2nc(-c3ccco3)nn12 (stereo not given)	AC50	[1]	39.8 µM [falling, single point]
